PubChem BioAssay AID504791 | Drosophila RNAi Screening Center – 2011
Purpose: 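Genes of the fly required for silencing by miRNA, siRNA or endo-siRNA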 (primary screen). System: Drosophila S2-derived reporter cells. Knock-down reagent: long dsRNA against Drosophila genes, about 150-250 ng dsRNA per well (siRNA assay); about 80-120 ng (miRNA assay). Duration: about 5 days (siRNA assay); about 4 days (miRNA assay). Treatment: copper sulfate induction of reporters: 25 µM (siRNA assay); 200 mM stated (miRNA assay), 1-2 days before reading. Measured: 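Per-well ratio of Renilla over firefly light, expressed relative to that plate's average ratio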. Units: stable assay Renilla, run 1 in luminescence; stable assay firefly, run 1 in luminescence. Hit rule: 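First-pass picks had plate-scaled ratios over 1.5 for the siRNA assay, over 1.6 for the miRNA assay, or under 0.6; two distinct dsRNAs had to score alike on retest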.
The screen tested about 23,000 reagents; below is a random part of those with a known target gene and a result. Over the whole deposit, 199 (0.86%) got an active call. 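Plate-scaled ratios behind the calls are not deposited; printed light signals are raw; many rows marked increased or decreased are still called inactive.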 Reagents against one gene are numbered here. Not given: the direction of the score.

Depletion of Slc45-1 resulted in: stable assay Renilla, run 1 = 6528; stable assay firefly, run 1 = 4.30e5; inactive.
Knock-down of CG18814 gave: stable assay Renilla, run 1 = 7144; stable assay firefly, run 1 = 4.87e5; inactive.
Silencing of yellow-d resulted in: stable assay Renilla, run 1 = 6659; stable assay firefly, run 1 = 3.64e5; inactive.
E(z) (Enhancer of zeste) showed stable assay Renilla, run 1 = 9647; stable assay firefly, run 1 = 4.88e5; inactive.
CG13671 gave stable assay Renilla, run 1 = 7600; stable assay firefly, run 1 = 5.76e5; inactive.
pcx (pecanex) #1 showed stable assay Renilla, run 1 = 6690; stable assay firefly, run 1 = 4.35e5; inactive.
Depletion of pcx (pecanex) #2 resulted in: stable assay Renilla, run 1 = 6822; stable assay firefly, run 1 = 4.96e5; inactive.
With knock-down of pcx (pecanex) #3 the results were stable assay Renilla, run 1 = 7130; stable assay firefly, run 1 = 4.58e5; inactive.
pcx (pecanex) #4 scored stable assay Renilla, run 1 = 6019; stable assay firefly, run 1 = 4.17e5; inactive.
Knock-down of pcx (pecanex) #5 gave: stable assay Renilla, run 1 = 7056; stable assay firefly, run 1 = 4.22e5; inactive.
pcx (pecanex) #6 gave stable assay Renilla, run 1 = 6638; stable assay firefly, run 1 = 3.80e5; inactive.
Against Glo1 (Glyoxalase 1) the deposit lists stable assay Renilla, run 1 = 7266; stable assay firefly, run 1 = 3.38e5; inactive.
CG5565 showed stable assay Renilla, run 1 = 6986; stable assay firefly, run 1 = 3.94e5; inactive.
Sirt2 (Sirtuin 2) scored stable assay Renilla, run 1 = 7178; stable assay firefly, run 1 = 3.57e5; inactive.

2 of these entries in another layout:
{"Gene":"CG18814","dsRNA no.":1,"stable assay Renilla, run 1":7144,"stable assay firefly, run 1":4.87e5,"Call":"inactive"}
{"Gene":"yellow-d","dsRNA no.":1,"stable assay Renilla, run 1":6659,"stable assay firefly, run 1":3.64e5,"Call":"inactive"}

The list goes on.
CG7974 gave stable assay Renilla, run 1 = 10013; stable assay firefly, run 1 = 3.47e5; inactive.
Knock-down of CG5854 gave: stable assay Renilla, run 1 = 6467; stable assay firefly, run 1 = 6.32e5; inactive.
With knock-down of bowl, the screen gave stable assay Renilla, run 1 = 43032; stable assay firefly, run 1 = 1.40e5; inactive.
After knock-down of dpy (dumpy) #1 the results were stable assay Renilla, run 1 = 3275; stable assay firefly, run 1 = 2.60e5; inactive.
Depletion of dpy (dumpy) #2 resulted in: stable assay Renilla, run 1 = 4315; stable assay firefly, run 1 = 2.62e5; inactive.
With knock-down of dpy (dumpy) #3, the record shows stable assay Renilla, run 1 = 8500; stable assay firefly, run 1 = 4.29e5; inactive.
Against bun (bunched) #1, the entry reads stable assay Renilla, run 1 = 4704; stable assay firefly, run 1 = 3.96e5; inactive.
bun (bunched) #2 scored stable assay Renilla, run 1 = 5011; stable assay firefly, run 1 = 4.60e5; inactive.
With knock-down of bun (bunched) #3, the record shows stable assay Renilla, run 1 = 12792; stable assay firefly, run 1 = 5.76e5; inactive.
For bun (bunched) #4 the deposit lists stable assay Renilla, run 1 = 4216; stable assay firefly, run 1 = 3.73e5; inactive.
Trm7-34 (tRNA methyltransferase 7-34) gave stable assay Renilla, run 1 = 6583; stable assay firefly, run 1 = 3.58e5; inactive.
Against por (porcupine), the values are stable assay Renilla, run 1 = 4483; stable assay firefly, run 1 = 4.12e5; inactive.
For SdhC (Succinate dehydrogenase, subunit C) the deposit lists stable assay Renilla, run 1 = 5550; stable assay firefly, run 1 = 4.05e5; inactive.
Depletion of ScsbetaG (Succinyl-coenzyme A synthetase beta subunit, GDP-forming) resulted in: stable assay Renilla, run 1 = 6387; stable assay firefly, run 1 = 3.68e5; inactive.
